{
  "source": "patent US12605461B2",
  "about": "(priority 2019, dated 2026)",
  "key": {"[1]": {"assay": "general procedure: Fmoc solid-phase peptide synthesis; Fmoc-Gly-Wang resin; HBTU", "details": "whole synthesis, scale 0.5 mmol"}, "[2]": {"assay": "general procedure: Fmoc solid-phase peptide synthesis; Fmoc-Ser(tBu)-Wang resin; HBTU", "details": "whole synthesis, scale 0.5 mmol"}, "[3]": {"assay": "Quantification of peptide immobilization (amino acid analysis)"}},
  "note": "Several values for one entry are separate records, joined by “and”; a condition that tells them apart may be missing. Equal entries are not always repeated.",
  "data": [
    {"substance": "Acetyl-GRGDSPASSKK(OA)G (N-acetyl; C-terminal oxyamine-modified Gly)", "values": [
      {"measurement": "isolated mass", "setting": "[1]", "result": 114.9, "unit": "mg"},
      {"measurement": "isolated yield", "setting": "[1]", "result": 17, "unit": "%"}
    ]},
    {"substance": "OA-SKAGAGPQGIQGQGAGKAK(OA)S", "values": [
      {"measurement": "isolated mass", "setting": "[2]", "result": 326, "unit": "mg"},
      {"measurement": "isolated yield", "setting": "[2]", "result": 30, "unit": "%"}
    ]},
    {"substance": "Acetyl-GRGDSPASSKK(OA)G (N-acetyl; C-terminal oxyamine-modified Gly) [RGDOA]", "values": [
      {"measurement": "concentration of immobilized RGDOA", "setting": "[3]; after 1 h from a 250 μM solution, HA-oxime hydrogel", "result": "34 ± 12 µM and 65 ± 14 µM"},
      {"measurement": "concentration of immobilized RGDOA", "setting": "[3]; after 24 h from a 250 μM solution", "result": "65 ± 14", "unit": "µM"},
      {"measurement": "concentration of immobilized RGDOA", "setting": "[3]; after 24 h from a 1 mM solution", "result": "242 ± 76", "unit": "µM"}
    ]}
  ]
}
